Measurements reported in patent US20190391163A1.
These are yes or no findings as the source states them, for the method shown. Binding seen in cells or lysates may run through a third protein. These calls come from enrichment with a bait or labelling near it, and not all partners need be listed.

Chains of the proteins cited; added tags and fusions are not shown. Lines headed by an entry give the natural chain unless they say otherwise; changes in a name come on top.
UniProt P12109: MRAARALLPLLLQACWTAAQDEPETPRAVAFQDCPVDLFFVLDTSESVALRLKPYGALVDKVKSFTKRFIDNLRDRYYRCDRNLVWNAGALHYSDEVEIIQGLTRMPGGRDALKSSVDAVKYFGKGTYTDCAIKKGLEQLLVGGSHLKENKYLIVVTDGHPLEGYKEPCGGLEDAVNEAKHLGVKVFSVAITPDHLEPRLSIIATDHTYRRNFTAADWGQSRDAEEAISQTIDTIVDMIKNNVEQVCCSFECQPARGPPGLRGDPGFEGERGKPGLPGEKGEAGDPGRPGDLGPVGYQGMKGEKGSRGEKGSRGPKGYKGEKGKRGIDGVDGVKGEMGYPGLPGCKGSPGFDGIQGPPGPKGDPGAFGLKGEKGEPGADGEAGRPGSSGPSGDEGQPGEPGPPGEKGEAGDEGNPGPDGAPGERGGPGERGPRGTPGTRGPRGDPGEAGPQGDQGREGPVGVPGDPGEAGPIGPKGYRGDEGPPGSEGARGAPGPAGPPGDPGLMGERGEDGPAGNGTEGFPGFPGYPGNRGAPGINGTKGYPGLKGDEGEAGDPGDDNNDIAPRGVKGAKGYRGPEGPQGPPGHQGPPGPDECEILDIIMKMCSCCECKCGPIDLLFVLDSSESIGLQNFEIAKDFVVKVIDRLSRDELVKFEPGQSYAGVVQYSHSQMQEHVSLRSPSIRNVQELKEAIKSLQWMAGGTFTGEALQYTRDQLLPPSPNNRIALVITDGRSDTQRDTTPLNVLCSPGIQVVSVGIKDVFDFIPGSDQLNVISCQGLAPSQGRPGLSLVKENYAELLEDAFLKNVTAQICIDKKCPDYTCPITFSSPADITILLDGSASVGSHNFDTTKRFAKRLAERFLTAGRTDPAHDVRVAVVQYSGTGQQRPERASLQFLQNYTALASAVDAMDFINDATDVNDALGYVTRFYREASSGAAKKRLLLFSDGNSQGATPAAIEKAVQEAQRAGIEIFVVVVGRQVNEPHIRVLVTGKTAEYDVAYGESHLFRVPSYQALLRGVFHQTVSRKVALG

T1: amine oxidase, copper containing 3 protein (AOC3) (human) (UniProt Q16853)
T1 sequence (looked up): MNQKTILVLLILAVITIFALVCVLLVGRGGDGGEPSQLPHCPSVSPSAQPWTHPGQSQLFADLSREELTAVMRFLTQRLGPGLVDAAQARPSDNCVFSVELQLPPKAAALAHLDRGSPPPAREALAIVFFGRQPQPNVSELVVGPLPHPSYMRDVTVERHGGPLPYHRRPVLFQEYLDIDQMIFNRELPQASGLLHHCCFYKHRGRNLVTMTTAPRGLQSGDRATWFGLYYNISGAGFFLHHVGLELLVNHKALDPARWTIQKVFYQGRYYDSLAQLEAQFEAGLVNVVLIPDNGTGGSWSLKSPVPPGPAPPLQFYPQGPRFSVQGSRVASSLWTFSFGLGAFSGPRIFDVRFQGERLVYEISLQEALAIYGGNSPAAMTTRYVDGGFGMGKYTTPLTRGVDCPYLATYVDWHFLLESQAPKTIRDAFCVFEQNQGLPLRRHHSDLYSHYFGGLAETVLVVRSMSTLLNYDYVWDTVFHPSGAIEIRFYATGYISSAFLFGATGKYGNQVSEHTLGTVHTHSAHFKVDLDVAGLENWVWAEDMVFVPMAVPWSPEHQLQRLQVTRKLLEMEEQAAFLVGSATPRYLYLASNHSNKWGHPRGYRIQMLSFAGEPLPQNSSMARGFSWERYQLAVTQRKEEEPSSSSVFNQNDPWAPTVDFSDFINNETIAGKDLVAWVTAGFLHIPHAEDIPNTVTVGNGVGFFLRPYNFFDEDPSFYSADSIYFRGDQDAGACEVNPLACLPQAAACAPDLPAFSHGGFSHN


Experiments:
[1] = biological target: T1, amine oxidase, copper containing 3 protein (AOC3) (human); experiment: target identification by immunoprecipitation and mass spectrometry
[2] = biological target: T1, amine oxidase, copper containing 3 protein (AOC3) (human); experiment: immunoprecipitation of SGBS cell EVs with antibody on CNBr-activated sepharose beads, eluate identified by mass spectrometry
[3] = biological target: Collagen Type VI alpha 1/2/3 (COL6A1/2/3) (human) (UniProt P12109); experiment: target identification by immunoprecipitation and mass spectrometry
[4] = biological target: Collagen Type VI alpha 1/2/3 (COL6A1/2/3) (human) (UniProt P12109); experiment: immunoprecipitation of SGBS cell EVs with antibody on CNBr-activated sepharose beads, eluate identified by mass spectrometry

Row | binding [1] | binding [2] | binding [3] | binding [4] | Binder
1 | binds | binds | – | – | antibody 15G1 (antibody, rat IgG2a, V domains shown) VH: EVQILETGGGLVKPGGSLRLSCATSGFNFNDYFMNWVRQAPGKGLEWVAQIRNKHYNYATYYGESLEGRVTISRDDSKSNVYLQVNSLRPEDTAIYYCSRSSYLRYFDFWGPGTMVTVSS VL: DIQMTQSPASLSASLEEIVTITCQASQDIGNWLAWYQQKPGKSPQLLIYDATTLADGVPSRFSGSRSGTQFSLKISRLQVEDIGIYYCQQASSAPWTFGGGTNLELKR
2 | binds | binds | – | – | antibody 14H5 (antibody, rat IgG2b, V domains shown) VH: QVQLQQSGAELAKPGSSVKISCKASGFTFTGYYISWIKQTTGQGLDYIGYINTGSGGTNYNEKFKGKATLTVDKSSSTAFMQLSSLTPDDSAVYYCARTYWRRYFDYWGQGVMVTVSS VL: DIQMTQSPASLSVSLEKIVTITCQASQDIGNWLAWYQQKPGKSPQLLIYGATSLADGVPSRFSGSRSGTQYSLKISRLQVEDIGIYYCQQASSAPLTFGSGTKLEIKR
3 | – | – | binds | binds | antibody 23A11 (antibody, V domains shown) VH: EVKLLESGGGLVQPGGSMRLSCAASGFTFTDFYMNWIRQPSGKAPEWLGFIRNKANGYTTESNPSVKGRFTISRDNTQSMLYLQMNTLRVEDTATYYCARGGFDVYSGLLPDYWGQGVMVTVSS VL: DIVMTQSPSSLAVSAGETVTINCKSSQNLLYRGNQKNYLAWYQQKPGQSPKLLIFWTSTRQPGVPDRFIGSGSGTDFTLTISSVQAEDLAIYYCQQYYGTPFTFGSGTKLEIR
